Results taken from US20110008264A1, “METHOD FOR REPELLING A RODENT, METHOD FOR CAPTURING A RODENT AND RODENT REPELLENT” (Earth Chemical Co., Ltd., priority 2006, published 2011).

Settings: average over 30 minutes at 5 minute intervals, room A; corrected by subtracting the control (about 309 cpm)

SMILES	Average dust quantity (smoke quantity) [cpm]
NC(=O)N=NC(N)=O [Example 2, azodicarbonamide]	227.8
NC(=O)N=NC(N)=O [Example 1, azodicarbonamide]	46.4
